# Test results as given in the supplement of paper PMC9135407.
# Where “and” joins values, the source holds several entries; their conditions need not be identical. Identical values can stand only once. Counter-ions that a name gives are not always drawn. ± gives the standard deviation of the averaged measurements. The list shows a part of the results. Plates or batches differ in their baseline, so values are only roughly comparable.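 Assay uses culture-activated primary human stellate myofibroblasts; lipid droplet recovery indicates inactivation. Measured: proportion of Hoechst-counted cells over a plate-specific Bodipy cutoff, duplicate wells, DMSO and nortriptyline as per-plate negative and positive controls. A hit scores, control-normalized, above the plate's top-tenth-percentile nortriptyline wells or ranks among its three best wells. Final well concentrations not reported.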
# System: primary human hepatic stellate cells (donor 1)
# Assay: percent Bodipy-positive cells; higher = more lipid droplet accumulation
# Settings: 48 h
# Procedure: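 Primary lipid accumulation screen in primary human hepatic stellate cell myofibroblasts (donor 1, passage 8) in 384-well plates. 100 nL of library compound was pin-transferred into 30 µL medium in duplicate, and cells were treated for 48 h. The 'Scaled' score combines distance from plate baseline, toxicity and reproducibility penalties, and is normalised to nortriptyline (positive) and DMSO (negative) controls on each plate. A hit is defined as scaled >0.85 or among the top 3 wells per plate.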
# [1] = library stock concentration: 80 uM
# [2] = library stock concentration: 400 uM
# [3] = library stock concentration: 2 mM
# [4] = library stock concentration: 10 mM
# [5] = library stock concentration: 3.33 mM
# [6] = library stock concentration: 1 mM
compound,measurement,setting,value
"CC[C@H](CO)Nc1nc(NCc2ccccc2)c2ncn(C(C)C)c2n1 [R-roscovitine, CYC202, Seliciclib]",percent Bodipy-positive cells,[1],7.95 ± 0.78%
same,percent Bodipy-positive cells,[2],12 ± 4.1%
same,percent Bodipy-positive cells,[3],19.7 ± 3.1%
same,percent Bodipy-positive cells,[4],64.4 ± 12%
CC[C@H](CO)Nc1nc(NCc2ccccc2)c2ncn(C(C)C)c2n1 [Roscovitine],percent Bodipy-positive cells,[5],20.9 ± 1%
same,percent Bodipy-positive cells,[4],90.77 ± 0.42%
O=C(O)CCC/C=C\C[C@H]1C(=O)C=C[C@@H]1/C=C/[C@@H](O)CCc1ccccc1 [17-phenyl trinor Prostaglandin A2],percent Bodipy-positive cells,[6],11.8 ± 1.5%
CC(C)(C)OC(=O)N1CCC(OCc2nc(-c3ccncc3)no2)CC1,percent Bodipy-positive cells,[6],8.15 ± 0.086%
CC(CCCCC(=O)Nc1ccc(C(F)(F)F)cc1)NCCc1cnc[nH]1 (stereo not drawn) [HTMT dimaleate],percent Bodipy-positive cells,[4],36.7 ± 0.56%
Cc1ccc(NC(=O)c2cccc(C(C)(C)C#N)c2)cc1Nc1ccc2ncn(C)c(=O)c2c1,percent Bodipy-positive cells,[1],9.77 ± 5.3%
same,percent Bodipy-positive cells,[2],13.5 ± 7.3%
same,percent Bodipy-positive cells,[3],6.67 ± 2.6%
same,percent Bodipy-positive cells,[5],5.54 ± 0.081%
same,percent Bodipy-positive cells,[4],11.7% and 8.19%
O=C(/C=C\n1cnc(-c2cc(C(F)(F)F)cc(C(F)(F)F)c2)n1)N1CC(F)(F)C1,percent Bodipy-positive cells,[5],40 ± 6.3%
same,percent Bodipy-positive cells,[4],56.5 ± 2.9%
CC/C=C\C/C=C\C/C=C\C/C=C\C/C=C\C/C=C\CCC(=O)O[C@H](COCCCCCCCCCCCCCCCC)COP(=O)([O-])OCC[N+](C)(C)C [Docosahexaenoyl PAF C-16],percent Bodipy-positive cells,[6],8.38 ± 4.2%
CC(C)(C)[N+]([O-])=Cc1ccc(S(=O)(=O)O)cc1S(=O)(=O)O,percent Bodipy-positive cells,[5],4.9 ± 0.9%
same,percent Bodipy-positive cells,[4],11.7% and 7.45%
CN1CCN(C(c2ccccc2)c2ccccc2)CC1 [Cyclizine hydrochloride],percent Bodipy-positive cells,,67.6 ± 8.6%
CN1CCN(C(c2ccccc2)c2ccccc2)CC1 [Cyclizine 2HCl],percent Bodipy-positive cells,[5],18.7 ± 1.6%
same,percent Bodipy-positive cells,[4],73.5 ± 5.8%
CN1CCN(C(c2ccccc2)c2ccccc2)CC1 [Cyclizine],percent Bodipy-positive cells,library stock concentration: 7.5 mM,16.5 ± 4.3%
same,percent Bodipy-positive cells,[4],49.7 ± 0.84%
COC(=O)[C@@H]1CC2=CC(=O)CC[C@]2(C)[C@@]23O[C@@H]2C[C@@]2(C)[C@@H](CC[C@@]24CCC(=O)O4)[C@H]13 [Eplerenone],percent Bodipy-positive cells,[4],8.97 ± 2.4%
CC(C)OC(=O)C1=CN(C(=O)c2ccc(F)c(F)c2)CC(C)(C)c2c1[nH]c1ccccc21,percent Bodipy-positive cells,[5],12 ± 2.5%
same,percent Bodipy-positive cells,[4],38.8 ± 2.6%
Cc1ccc(F)c(NC(=O)Nc2ccc(-c3cccc4[nH]nc(N)c34)cc2)c1 [Linifanib (ABT-869)],percent Bodipy-positive cells,[5],19.3 ± 12%
same,percent Bodipy-positive cells,[4],61.5 ± 11%
Cc1ccc(F)c(NC(=O)Nc2ccc(-c3cccc4[nH]nc(N)c34)cc2)c1,percent Bodipy-positive cells,[1],20.2 ± 5%
same,percent Bodipy-positive cells,[2],17.9% and 24.6%
same,percent Bodipy-positive cells,[3],34.8% and 46.1%
same,percent Bodipy-positive cells,[4],47.8 ± 0.8%
C[C@]12CC[C@@H]3c4ccc(OC(=O)c5ccccc5)cc4CC[C@H]3[C@@H]1CC[C@@H]2O [Estradiol benzoate],percent Bodipy-positive cells,library stock concentration: 5.3 mM,17.1 ± 3.5%
C[C@]12CC[C@@H]3c4ccc(OC(=O)c5ccccc5)cc4CC[C@H]3[C@@H]1CC[C@@H]2O [Estradiol Benzoate],percent Bodipy-positive cells,[5],7.7 ± 1.7%
same,percent Bodipy-positive cells,[4],45.7 ± 6.5%
O=C(Nc1ccncc1)c1cc([N+](=O)[O-])ccc1Cl,percent Bodipy-positive cells,[6],17.7 ± 9.5%
same,percent Bodipy-positive cells,[5],13.2 ± 0.63%
Cc1cc(NC(=O)Nc2ccc3c(ccn3C)c2)sn1,percent Bodipy-positive cells,[4],47.1 ± 1.3%
CCCCCCNC(=O)Nc1ccc(S(=O)(=O)Nc2ccc(CCNC[C@H](O)COc3ccc(O)cc3)cc2)cc1,percent Bodipy-positive cells,[4],34 ± 1.7%
O=C1OC[C@H](Cc2cccc(O)c2)[C@H]1Cc1cccc(O)c1,percent Bodipy-positive cells,[6],14.6 ± 3.9%
O=C(CCCN1CCN(c2ccccn2)CC1)c1ccc(F)cc1 [Azaperone],percent Bodipy-positive cells,,12 ± 8.9%
same,percent Bodipy-positive cells,[5],12.9 ± 8.1%
same,percent Bodipy-positive cells,library stock concentration: 6.1 mM,13.3% and 21.3%
same,percent Bodipy-positive cells,[4],41.5% and 35.3%
C[C@H](CCC(=O)O)[C@H]1CC[C@H]2[C@@H]3[C@@H](O)C[C@@H]4C[C@H](O)CC[C@]4(C)[C@H]3CC[C@]12C [Urosiol],percent Bodipy-positive cells,,2.85 ± 0.24%
C[C@H](CCC(=O)O)[C@H]1CC[C@H]2[C@@H]3[C@@H](O)C[C@@H]4C[C@H](O)CC[C@]4(C)[C@H]3CC[C@]12C [Ursodiol],percent Bodipy-positive cells,[5],11 ± 2.4%
same,percent Bodipy-positive cells,library stock concentration: 5.1 mM,18.2 ± 2.2%
same,percent Bodipy-positive cells,[4],8.42% and 28.5%
C[C@@H](O)[C@@H]1NC(=O)[C@H](CCCCN)NC(=O)[C@@H](Cc2c[nH]c3ccccc23)NC(=O)[C@H](Cc2ccccc2)NC(=O)[C@@H](NC(=O)[C@H](N)Cc2ccccc2)CSSC[C@@H](C(=O)N[C@H](CO)[C@@H](C)O)NC1=O [Octreotide],percent Bodipy-positive cells,[3],10.6 ± 0.45%
C#C[C@]1(O)CC[C@H]2[C@@H]3CCC4=CCCC[C@@H]4[C@H]3CC[C@@]21C [Lynestrenol],percent Bodipy-positive cells,,30.3 ± 9.8%
CCCCCCCCCCCCCCCCOCC(COP(=O)(O)OCC[N+](C)(C)C)OCC (stereo not drawn) [2-O-ethyl PAF C-16],percent Bodipy-positive cells,[6],8.16 ± 1.6%
"CN(C)C(N)=NCCC[C@H](N)C(=O)O [N^G,N^G-Dimethylarginine hydrochloride]",percent Bodipy-positive cells,[4],38.8 ± 6.8%
